The record followed here is PubChem BioAssay AID248 (DTP/NCI, 2004).

In the experiment the test system is L1210 leukemia ip in BDF1 mice, survival T/C. Description: NCI In Vivo Anticancer Drug Screen. Data for tumor model L1210 Leukemia (intraperitoneal) in B6D2F1 (BDF1) mice. Conditions: T/C endpoint: mean survival time, higher T/C = longer survival.
Where [1] appears, read: dose: 100.0 mg/kg/injection, schedule: Q01DX001 (ip), vehicle: saline.
Setting [2] is: dose: 200.0 mg/kg/injection, schedule: Q01DX001 (ip), vehicle: saline.
[3] abbreviates: dose: 400.0 mg/kg/injection, schedule: Q01DX001 (ip), vehicle: saline.
Setting [4] is: dose: 400.0 mg/kg/injection, schedule: Q04DX003 (ip), vehicle: acetone.
Where [5] appears, read: dose: 400.0 mg/kg/injection, schedule: Q04DX003 (ip), vehicle: saline.
Where [6] appears, read: dose: 400.0 mg/kg/injection, schedule: Q01DX009 (ip), vehicle: saline with Tween-80.
[7] abbreviates: dose: 400.0 mg/kg/injection, schedule: Q01DX001 (ip), vehicle: carboxymethylcellulose (CMC).

Each structure is given as a SMILES string. The list shows only some results of the screen, not a fair sample: it is rich in T/C values a quarter to a half above the control, in often repeated tests (any T/C) and in doses without a T/C. Other doses and runs of a compound stand elsewhere. T/C: endpoint of the treated group in % of that of the vehicle group. Some doses have a count of surviving animals in place of a T/C: the source files T/C as zero there, which appears to mark a toxic dose or a test without result, not a measured value. Some survivor counts are full or nearly so, which does not show that the dose was tolerated: survival well below the control is almost never listed, so the zero probably covers shortened survival too. Survivors were counted at the toxicity check, usually on the fifth day, unless a day is given; later deaths do not show. Schedules are NCI's codes, read here as Q, the interval in days (D) or hours (H), X, the number of doses. Some schedule codes hold Z or #, which are not explained here. Some entries hold several experiments; the results are listed from low to high. Where survival is the endpoint, the PubChem record calls one and a half times the control and up active, and a quarter to a half above the control has no call in these data; cut-offs in other NCI protocols can differ.

Regarding `O=C(CCN1CC1)OCCOC(=O)CCN1CC1`, the T/C was 147 % of control (dose: 7.1 mg/kg/injection, schedule: Q01DX Z (ip), vehicle: methylcellulose (MC)); 131 % of control (dose: 10.0 mg/kg/injection, schedule: Q01DX005 (ip), vehicle: saline); 130 % of control (dose: 10.6 mg/kg/injection, schedule: Q01DX Z (ip), vehicle: methylcellulose (MC)); 144 % of control (dose: 16.5 mg/kg/injection, schedule: Q01DX009 (ip), vehicle: acetone); 134 % of control (dose: 25.0 mg/kg/injection, schedule: Q04DX003 (ip), vehicle: acetone); 126 % of control (dose: 25.0 mg/kg/injection, schedule: Q04DX003 (ip), vehicle: saline). Moreover, the T/C (dose: 33.0 mg/kg/injection, schedule: Q01DX001 (ip), vehicle: saline) was 130 % of control; the T/C (dose: 50.0 mg/kg/injection, schedule: Q01DX001 (ip), vehicle: saline) was 125 and 126 % of control; the T/C (dose: 75.0 mg/kg/injection, schedule: Q01DX001 (ip), vehicle: saline) was 135 % of control. The survivor count (dose: 67.5 mg/kg/injection, schedule: Q01DX009 (ip), vehicle: saline) is listed as 1 of 6; the survivor count under setting [1] was 1 of 4; the survivor count (dose: 100.0 mg/kg/injection, schedule: Q04DX003 (ip), vehicle: acetone) is given as 3 of 6; the survivor count (dose: 125.0 mg/kg/injection, schedule: Q01DX009 (ip), vehicle: saline) is on record as 0 of 6; the survivor count under setting [2] is reported as 0 of 4; the survivor count (dose: 200.0 mg/kg/injection, schedule: Q04DX003 (ip), vehicle: acetone) is 0 of 6. Further, the survivor count under setting [3] was 1 of 4 and the survivor count under setting [4] is recorded as 0 of 6.
With `CCOC(=O)NC(C)(C)CN(C(=O)OCC)C(C)(C)CO`, the survivor count under setting [5] is recorded as 0 of 6.
Turning to `CN(C)C(=O)Nc1nc2ccccc2s1`, the survivor count (dose: 400.0 mg/kg/injection, schedule: Q04DX003 (ip), vehicle: other) is 1 of 3 and 4 of 6.
For `CC1(C)OC(=O)C(C(=O)O)C1c1ccccc1` (configuration not stated), the survivor count under setting [3] is listed as 0 of 6.
With `Cc1c(Cl)cccc1NS(=O)(=O)c1cccc([N+](=O)[O-])c1`, the survivor count under setting [6] is reported as 6 of 6.
Regarding `Cc1ccc(S(=O)(=O)/C=C(\C=C/c2ccccc2)c2ccccc2)cc1`, the survivor count under setting [4] is listed as 6 of 6.
Consider `O=c1[nH]c2ccccc2n1C1CCN(CCCC(c2ccc(F)cc2)c2ccc(F)cc2)CC1`, for which the survivor count is, setting by setting: (dose: 50.0 mg/kg/injection, schedule: Q01DX009 (ip), vehicle: Klucel (hydroxypropylcellulose) (HPC)) 5 of 6; (dose: 200.0 mg/kg/injection, schedule: Q01DX009 (ip), vehicle: Klucel (hydroxypropylcellulose) (HPC)) 6 of 6.
`COC(=O)N1C2C=CC(C2)N1C(=O)OC`: the survivor count is listed as 1 of 6 (dose: 200.0 mg/kg/injection, schedule: Q01DX009 (ip), vehicle: DMSO) and 0 of 6 (dose: 400.0 mg/kg/injection, schedule: Q04DX003 (ip), vehicle: DMSO).
Regarding `CC1c2ncnc(N)c2CN1C(=O)c1ccccc1` (configuration not stated), under setting [7], the survivor count was 0 of 4.
As to `CCCN(CCC)CCCC#N`, the survivor count (dose: 400.0 mg/kg/injection, schedule: Q04DX003 (ip), vehicle: saline with Tween-80) is given as 0 of 6.
On to `O=C(Nc1ccc(Cl)cc1)c1cccnc1`, for which the survivor count under setting [6] is 4 of 6.
For `O=[N+]([O-])c1ccccn1`, the survivor count by setting is: (dose: 25.0 mg/kg/injection, schedule: Q01DX009 (ip), vehicle: saline) 4 of 6; (dose: 150.0 mg/kg/injection, schedule: Q01DX001 (ip), vehicle: other) 0 of 6; (dose: 300.0 mg/kg/injection, schedule: Q01DX001 (ip), vehicle: other) 0 of 6.
`CCCCn1c(C)nc2c(NN=C(N)N)c3ccccc3c(N=NC(=N)N)c21`: the survivor count by setting is: (dose: 30.0 mg/kg/injection, schedule: Q01DX Z (ip), vehicle: carboxymethylcellulose (CMC)) 1 of 6; (dose: 60.0 mg/kg/injection, schedule: Q01DX Z (ip), vehicle: carboxymethylcellulose (CMC)) 0 of 6; (dose: 120.0 mg/kg/injection, schedule: Q01DX Z (ip), vehicle: carboxymethylcellulose (CMC)) 0 of 6.
On to `CN(CN(C)NC(=O)c1ccccc1)NC(=O)c1ccccc1`, for which the survivor count was 0 of 6 (dose: 200.0 mg/kg/injection, schedule: Q01DX001 (ip), vehicle: carboxymethylcellulose (CMC)) and 0 of 6 under setting [7].
For the compound `CCOC(=O)/C(C#N)=C(\CC)c1ccccc1`, the survivor count (dose: 400.0 mg/kg/injection, schedule: Q01DX009 (ip), vehicle: Klucel (hydroxypropylcellulose) (HPC)) is 0 of 6.
Take `O=NN(CCCl)C(=O)NC1CCC(O)CC1` (configuration not stated): the T/C reads like this: (dose: 6.25 mg/kg/injection, schedule: Q01DX001 (ip), vehicle: saline) 127, 129, 138 % of control; (dose: 12.5 mg/kg/injection, schedule: Q01DX001 (ip), vehicle: saline) 128 % of control; (dose: 13.0 mg/kg/injection, schedule: Q01DX001 (ip), vehicle: saline) 142 % of control; (dose: 90.0 mg/kg/injection, schedule: Q01DX001 (ip), vehicle: saline) 147 % of control. For the same compound, the survivor count is listed as 5 of 5 (dose: 67.0 mg/kg/injection, schedule: Q01DX001 (ip), vehicle: saline); 5 of 6 under setting [1]; 9 of 10 (dose: 133.0 mg/kg/injection, schedule: Q01DX001 (ip), vehicle: saline); 6 of 6 (dose: 150.0 mg/kg/injection, schedule: Q01DX001 (ip), vehicle: saline); 8 of 10 under setting [2].
With `CNC(Cc1ccccc1)C1CCCCC1` (configuration not stated), the survivor count by setting is: (dose: 50.0 mg/kg/injection, schedule: Q04DX003 (ip), vehicle: Klucel (hydroxypropylcellulose) (HPC)) 6 of 6; (dose: 100.0 mg/kg/injection, schedule: Q04DX003 (ip), vehicle: Klucel (hydroxypropylcellulose) (HPC)) 0 of 6 and 4 of 6; (dose: 200.0 mg/kg/injection, schedule: Q04DX003 (ip), vehicle: Klucel (hydroxypropylcellulose) (HPC)) 0 of 6; (dose: 400.0 mg/kg/injection, schedule: Q04DX003 (ip), vehicle: Klucel (hydroxypropylcellulose) (HPC)) 0 of 6.
Turning to `O=CNc1ccccc1.[Hg]`, the survivor count is on record as 1 of 6 (dose: 12.5 mg/kg/injection, schedule: Q04DX003 (ip), vehicle: saline with Tween-80); 0 of 6 (dose: 25.0 mg/kg/injection, schedule: Q04DX003 (ip), vehicle: saline with Tween-80); 0 of 3 (dose: 100.0 mg/kg/injection, schedule: Q04DX002 (ip), vehicle: saline with Tween-80); 0 of 3 (dose: 200.0 mg/kg/injection, schedule: Q04DX002 (ip), vehicle: saline with Tween-80); 0 of 3 (dose: 400.0 mg/kg/injection, schedule: Q04DX002 (ip), vehicle: saline with Tween-80).
`OC1CCCCCC2CC12` (configuration not stated): the survivor count runs as follows: (dose: 200.0 mg/kg/injection, schedule: Q01DX005 (ip), vehicle: saline with Tween-80) 3 of 3; (dose: 400.0 mg/kg/injection, schedule: Q01DX005 (ip), vehicle: saline with Tween-80) 3 of 3.
In the case of `Cc1cccc(Cl)c1NC(=O)CN(C)C`, the survivor count under setting [3] is listed as 2 of 4.
`CCOc1ccc(/C=N/Nc2c3ccccc3nc3ccccc23)cc1OCC`: the survivor count under setting [3] is on record as 4 of 4.
Regarding `NC(N)=Nc1ccccc1`, the survivor count under setting [5] is 1 of 3.
`O=NN(CCCl)C(=O)Nc1cccc2cccnc12`: the T/C (dose: 5.0 mg/kg/injection, schedule: Q01DX001 (ip), vehicle: carboxymethylcellulose (CMC)) is 142 % of control.
